For one molecule, binding results are on record in PMC4889068.

The assay has as its target Hsp90 purified from HeLa cells (Enzo Life Sciences) (human (endogenous in HeLa)). As to the kind of experiment: ELISA; competition: Hsp90 coated on plate; constant 1.33 μM CacyBP/SIP alone or with increasing Sgt1 (0 to 1.33 μM, Sgt1A and Sgt1B 1:1); detected with anti-CacyBP/SIP antibody; both purified. In general terms: An ELISA detects its analyte on a solid surface through an enzyme-linked reagent.

These are yes or no findings as the source states them, for the method shown. Binding calls can cover weak binding; strength is not graded here.

B1: recombinant Sgt1A (human) (protein, UniProt Q9Y2Z0-2 1-333)
chain: MAAAAAGTATSQRFFQSFSDALIDEDPQAALEELTKALEQKPDDAQYYCQRAYCHILLGNYCVAVADAKKSLELNPNNSTAMLRKGICEYHEKNYAAALETFTEGQKLDSADANFSVWIKRCQEAQNGSESEVWTHQSKIKYDWYQTESQVVITLMIKNVQKNDVNVEFSEKELSALVKLPSGEDYNLKLELLHPIIPEQSTFKVLSTKIEIKLKKPEAVRWEKLEGQGDVPTPKQFVADVKNLYPSSSPYTRNWDKLVGEIKEEEKNEKLEGDAALNRLFQQIYSDGSDEVKRAMNKSFMESGGTVLSTNWSDVGKRKVEINPPDDMEWKKY
Regarding B1, the binding result is on record as “binds”.
